US6566489
These are yes or no findings as the source states them, for the method shown. Binding seen in cells or lysates may run through a third protein. Some results given as binding are weak or reduced against the parent protein; the word gives no strength. For some of these results: Where a sequence is shown, tags or fusion partners need not be part of it. Values belong to the binder of their own block, whether it stands above or below them.

Amino acid sequences for entries named in this document (tags omitted).
UniProt P49024: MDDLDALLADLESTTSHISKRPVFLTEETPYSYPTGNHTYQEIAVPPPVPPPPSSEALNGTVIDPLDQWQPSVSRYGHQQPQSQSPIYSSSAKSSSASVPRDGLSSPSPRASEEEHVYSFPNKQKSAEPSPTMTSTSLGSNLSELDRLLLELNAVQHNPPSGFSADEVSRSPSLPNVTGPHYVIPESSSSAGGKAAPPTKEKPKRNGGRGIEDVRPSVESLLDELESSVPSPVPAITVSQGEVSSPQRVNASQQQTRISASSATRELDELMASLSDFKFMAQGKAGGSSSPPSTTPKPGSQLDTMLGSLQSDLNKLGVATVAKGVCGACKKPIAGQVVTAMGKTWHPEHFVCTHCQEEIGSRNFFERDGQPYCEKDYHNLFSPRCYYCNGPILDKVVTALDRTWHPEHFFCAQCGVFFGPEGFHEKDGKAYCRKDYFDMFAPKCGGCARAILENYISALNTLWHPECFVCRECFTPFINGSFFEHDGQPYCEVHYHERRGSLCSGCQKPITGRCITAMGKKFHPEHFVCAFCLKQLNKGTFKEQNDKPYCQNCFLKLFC

Experiments:
[1] = molecular target: GST-S4BP fusion protein (bacterially expressed, immobilized on glutathione agarose beads) (chicken) [GST: P08515]; assay: pull-down on immobilized GST-S4BP (deletion mutant series)
[2] = molecular target: GST-S4BP fusion protein (bacterially expressed, immobilized on glutathione agarose beads) (chicken) [GST: P08515]; assay: pull-down of soluble pMal-syndecan on GST-S4BP beads (chimera series)
[3] = molecular target: GST-S4BP fusion protein (bacterially expressed, immobilized on glutathione agarose beads) (chicken) [GST: P08515]; assay: pull-down of soluble pMal-syndecan on GST-S4BP beads, western blot with CS4E
[4] = molecular target: T1, syndecan-4, endogenous protein of chicken embryo fibroblasts (chicken) (UniProt P49416); assay: co-immunoprecipitation from chick embryo fibroblast lysates with anti-syndecan-4 (CS4E), western blot with anti-S4BP
T1 sequence (looked up): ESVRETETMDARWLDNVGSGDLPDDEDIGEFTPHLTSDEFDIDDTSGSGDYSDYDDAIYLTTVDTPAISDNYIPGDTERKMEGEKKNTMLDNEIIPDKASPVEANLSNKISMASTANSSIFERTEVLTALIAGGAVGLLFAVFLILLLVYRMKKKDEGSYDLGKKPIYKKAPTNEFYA

[5] = molecular target: paxillin, endogenous protein of chicken embryo fibroblasts (chicken) (UniProt P49024); assay: co-immunoprecipitation from serum starved CEFs after TPA treatment
[6] = molecular target: paxillin, endogenous protein of chicken embryo fibroblasts (chicken) (UniProt P49024); assay: co-immunoprecipitation from normal non-serum starved CEFs
[7] = molecular target: T1, syndecan-4, endogenous protein of chicken embryo fibroblasts (chicken); assay: co-immunoprecipitation from serum starved CEFs in the first five minutes after TPA treatment

binding [1]: binds | binding [2]: binds | binding [3]: binds
B1: pMal/syndecan-4 fusion protein, full length syndecan-4 core protein (S-4) (protein, avian, UniProt P49416 20-197, looked up, not shown: large carriers)
chain: T1 sequence (looked up)

binding [4]: binds | binding [5]: binds | binding [6]: binds | binding [7]: binds
B2: S4BP, endogenous protein of chicken embryo tissues and chicken embryo fibroblasts (CEFs) (protein)
chain: GVMAAVGALPAGAGSLPPLPTLGVPGVPELKPLTRYEAMRLGPGWSHSCHAMLYAPNPGMLFGRIPLRYAVLMQMRFDGLLGFPGGFVDRRYWSLEDGLNRVLGLGLGCVRLTEADYLCSHLTDGPHRVVAHLYARQLTLEELHTIEISAVHSRDHGLEVMGMVRVPLYTQKDRMGGLPNFLANSFVGTAKFQLLFALKILNMVPEEKLAEAVAATQKPKKPAIDHAAVAAAKQANELAAAARAGNEYADSGENQAAAHAAAELAEQQAAGLESQAVLEHLAAVPGAEAVVAELHAQPGADAVLEQPVAEAME
modifications: can be myristoylated (glycine following the second or third methionine)
